From PubChem BioAssay (NCATS)
This list was built around the results that the source calls inconclusive (neither active nor inactive); the mix of calls is not that of the screen. Where the call is inconclusive, the potency comes from a doubtful curve fit. The source made the active and inactive calls. The call rests on the fitted dose curve; in most records, active means well fitted curve in the direction sought with a large enough effect; inconclusive means small, poorly fitted or top-dose-only effect, or another doubt; inactive means no such curve, though single readings can be large; an effect the other way counts as inactive or inconclusive.

Columns and labels:
[1] = Quantitative High-Throughput drug screen in 47 multiple myeloma cell lines against the NCATS MIPE library collection: JIM1_ECACC cell viability assay (AID 1918964); conditions: JIM1 myeloma viability, CellTiter-Glo ATP luminescence, 48 h; viability (% of DMSO): at 45.8 µM (top of the series)
Outline: (§1)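 We plated 500 myeloma cells per well, pinned in MIPE 4.0 compounds, and incubated for 48 hours at 37C. ATP was then quantified with CellTiter-Glo, with DMSO and media-only wells defining 100% and 0%.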

[2] = Quantitative High-Throughput drug screen in 47 multiple myeloma cell lines against the NCATS MIPE library collection: INA6_PLB cell viability assay (AID 1918965; further: nearly all actives have a fitted effect of over 55% in size); conditions: INA6 myeloma viability, CellTiter-Glo ATP luminescence, 48 h; viability (% of control): at 45.8 µM (top of the series)
Outline: (§2)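 Myeloma cells (500 per well) were exposed to MIPE 4.0 compounds by pin transfer and incubated 48 hours at 37C, 5% CO2. Viability was read as ATP by CellTiter-Glo luminescence, normalised to DMSO (100%) and media-only (0%) wells.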

[3] = Quantitative High-Throughput drug screen in 47 multiple myeloma cell lines against the NCATS MIPE library collection: JJN3_DSMZ cell viability assay (AID 1918966; further: nearly all actives have a fitted effect of over 50% in size); conditions: JJN3 myeloma cells viability, CellTiter-Glo ATP, 48 h; series mostly up to 45.8 µM
Outline: as §1

[4] = Quantitative High-Throughput drug screen in 47 multiple myeloma cell lines against the NCATS MIPE library collection: H1112_PLB cell viability assay (AID 1918967; further: nearly all actives have a fitted effect of over 30% in size); conditions: H1112 myeloma cells viability, ATP luminescence, 48 h; viability: at 45.8 µM (top of the series)
Outline: as §1

[5] = Quantitative High-Throughput drug screen in 47 multiple myeloma cell lines against the NCATS MIPE library collection: KMS12BM_JCRB cell viability assay (AID 1918971); further: nearly all actives have a fitted effect of over 35% in size
Outline: (§3)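 Viability readout: CellTiter-Glo luminescence following 5 min room-temperature incubation with reagent. Prior exposure: 48 h, 37C, humidified 5% CO2, 500 cells per well.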

[6] = Quantitative High-Throughput drug screen in 47 multiple myeloma cell lines against the NCATS MIPE library collection: KMS20_JCRB cell viability assay (AID 1918973); conditions: CellTiter-Glo ATP, 48 h; viability (% of DMSO): at 45.8 µM (top of the series); further: nearly all actives have a fitted effect of over 45% in size
Outline: as §1

[7] = Quantitative High-Throughput drug screen in 47 multiple myeloma cell lines against the NCATS MIPE library collection: KMS21BM_JCRB cell viability assay (AID 1918974); conditions: ATP luminescence, 48 h; viability: at 45.8 µM (top of the series) unless noted
Outline: as §1

[8] = Quantitative High-Throughput drug screen in 47 multiple myeloma cell lines against the NCATS MIPE library collection: KMS26_JCRB cell viability assay (AID 1918975); conditions: KMS26 myeloma cells viability, CellTiter-Glo ATP, 48 h; viability (% of DMSO): at 45.8 µM (top of the series); further: nearly all actives have a fitted effect of over 45% in size
Outline: as §3

[9] = Quantitative High-Throughput drug screen in 47 multiple myeloma cell lines against the NCATS MIPE library collection: MOLP8_DSMZ cell viability assay (AID 1918977); conditions: MOLP8 myeloma viability, CellTiter-Glo ATP luminescence, 48 h; viability (% of control): at 45.8 µM (top of the series); further: nearly all actives have a fitted effect of over 45% in size
Outline: (§4)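 Myeloma cells (500/well) treated with MIPE 4.0 compounds for 48 h at 37 °C, 5% CO2. Viability read as ATP via CellTiter-Glo luminescence after 5 min at RT; DMSO-only wells = 100%, media-only = 0% viability.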

[10] = Quantitative High-Throughput drug screen in 47 multiple myeloma cell lines against the NCATS MIPE library collection: MM1S_ATCC cell viability assay (AID 1918980); further: nearly all actives have a fitted effect of over 45% in size
Outline: as §4

[11] = Quantitative High-Throughput drug screen in 47 multiple myeloma cell lines against the NCATS MIPE library collection: MM1R_ATCC cell viability assay (AID 1918981); further: nearly all actives have a fitted effect of over 35% in size
Outline: as §4

[12] = Quantitative High-Throughput drug screen in 47 multiple myeloma cell lines against the NCATS MIPE library collection: KMS28PE_JCRB cell viability assay (AID 1918983); further: nearly all actives have a fitted effect of over 35% in size
Outline: as §4

[13] = Quantitative High-Throughput drug screen in 47 multiple myeloma cell lines against the NCATS MIPE library collection: Karpas25_ECACC cell viability assay (AID 1918968; further: nearly all actives have a fitted effect of over 35% in size); conditions: Karpas25 myeloma viability, CellTiter-Glo ATP, 48 h; viability (% of control): at 45.8 µM (top of the series)
Outline: as §1

[14] = Quantitative High-Throughput drug screen in 47 multiple myeloma cell lines against the NCATS MIPE library collection: KMS12PE_JCRB cell viability assay (AID 1918972); conditions: KMS12PE myeloma viability, CellTiter-Glo ATP, 48 h; viability: at 45.8 µM (top of the series); further: nearly all actives have a fitted effect of over 30% in size
Outline: as §2

[15] = Quantitative High-Throughput drug screen in 47 multiple myeloma cell lines against the NCATS MIPE library collection: OCIMY1_PLB cell viability assay (AID 1918979); further: nearly all actives have a fitted effect of over 35% in size
Outline: as §4

[16] = Quantitative High-Throughput drug screen in 47 multiple myeloma cell lines against the NCATS MIPE library collection: MMM1_PLB cell viability assay (AID 1918976); further: nearly all actives have a fitted effect of over 35% in size
Outline: as §4

[17] = Quantitative High-Throughput drug screen in 47 multiple myeloma cell lines against the NCATS MIPE library collection: LP1_DSMZ cell viability assay (AID 1918982); further: nearly all actives have a fitted effect of over 35% in size
Outline: as §4

[18] = Quantitative High-Throughput drug screen in 47 multiple myeloma cell lines against the NCATS MIPE library collection: KMS27_JCRB cell viability assay (AID 1918970); conditions: KMS27 myeloma cells, CellTiter-Glo ATP viability, 48 h; viability (% of DMSO): at 45.8 µM (top of the series); further: nearly all actives have a fitted effect of over 30% in size
Outline: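 Luminescent ATP read-out (CellTiter-Glo, 5 min at room temperature) after 48 h compound exposure of 500 KMS27_JCRB cells per well; DMSO wells define full viability and media-only wells zero.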

[19] = Quantitative High-Throughput drug screen in 47 multiple myeloma cell lines against the NCATS MIPE library collection: NCIH929_DSMZ cell viability assay (AID 1918978); further: nearly all actives have a fitted effect of over 35% in size
Outline: as §4
Potency means the concentration at half of the fitted maximal effect.

Structure (SMILES) | Potency [1] | Potency [2] | Potency [3] | Potency [4] | Potency [5] | Potency [6] | Potency [7] | Potency [8] | Potency [9] | Potency [10] | Potency [11] | Potency [12] | Potency [13] | Potency [14] | Potency [15] | Potency [16] | Potency [17] | Potency [18] | Potency [19]
Cc1noc(NS(=O)(=O)c2ccc(N)cc2)c1C | inconclusive: 0.662 µM [cytotoxic, partial curve, poor fit] | inactive | inconclusive: 0.0019 µM [rising, full curve, poor fit] | inactive | inconclusive: 0.0042 µM [rising, full curve, poor fit] | inconclusive: 37.2 µM [rising, partial curve, poor fit] | inactive | inactive | inconclusive: 0.0012 µM [rising, full curve, poor fit] | inconclusive: 7.43 µM [rising, single point] | inconclusive: 0.001 µM | inactive |  |  |  |  |  |  | 
CC1(C)O[C@H]2C[C@@H]3[C@H]4CCC5=CC(=O)C=C[C@]5(C)[C@@]4(F)[C@@H](O)C[C@]3(C)[C@]2(C(=O)CO)O1 | inactive | inactive | inactive | inconclusive: 0.003 µM [rising, full curve, poor fit] | inconclusive: 0.0023 µM [rising, full curve, poor fit] | inconclusive: 37.2 µM [cytotoxic, single point] |  | inactive | inconclusive: 0.0047 µM [cytotoxic, full curve, poor fit] |  | inconclusive: 37.2 µM [cytotoxic, single point] |  | inconclusive: 0.0469 µM [cytotoxic, full curve] | inactive | inactive |  |  |  | 
CC1CCN(c2cc(N3CCN(C)CC3)ccc2NC(=O)c2cc(C#N)c[nH]2)CC1 | inactive | inconclusive: 0.001 µM [cytotoxic] | inconclusive: 23.5 µM [cytotoxic, partial curve, poor fit] | inactive | inconclusive: 23.5 µM [cytotoxic, partial curve, poor fit] | inactive | inconclusive: 23.5 µM [rising, partial curve] | inconclusive: 26.4 µM [cytotoxic, single point] | inconclusive: 37.2 µM [cytotoxic, partial curve, poor fit] | inconclusive: 33.2 µM [cytotoxic, single point] | active: 20.9 µM |  |  |  | inconclusive: 26.4 µM [cytotoxic, single point] | active: 23.5 µM | inconclusive: 23.5 µM [cytotoxic, partial curve] |  | 
Cc1cc2c(cc1C1(c3ccc(C(=O)O)cn3)CC1)C(C)(C)CCC2(C)C | inconclusive: 0.235 µM [cytotoxic, full curve, poor fit] | inconclusive: 33.2 µM [cytotoxic, single point] | active: 1.05 µM |  | active: 3.32 µM | inconclusive: 37.2 µM [cytotoxic, partial curve, poor fit] | inconclusive: 0.0019 µM [rising, full curve] | active: 14.8 µM | inconclusive: 2.64 µM [cytotoxic, full curve, poor fit] | inactive | active: 6.62 µM | inconclusive: 5.26 µM [cytotoxic, partial curve, poor fit] | inconclusive: 18.7 µM [cytotoxic, partial curve] | inactive | active: 0.0015 µM | inconclusive: 4.69 µM [cytotoxic, full curve, poor fit] | inconclusive: 13.2 µM [cytotoxic, partial curve, poor fit] | inconclusive: 5.26 µM [cytotoxic, partial curve, poor fit] | inconclusive: 2.96 µM [cytotoxic, partial curve, poor fit]
Cc1ccc(/C=N/NC(=O)c2ccccc2Oc2ccccc2)o1 | inconclusive: 10.5 µM [cytotoxic, partial curve, poor fit] | active: 16.6 µM | inconclusive: 14.8 µM [cytotoxic, partial curve, poor fit] | inconclusive: 11.8 µM [cytotoxic, partial curve] |  | active: 16.6 µM | inconclusive: 33.2 µM [rising, partial curve, poor fit] | inconclusive: 37.2 µM [cytotoxic, single point] | inconclusive: 3.32 µM [cytotoxic, full curve, poor fit] |  | inconclusive: 23.5 µM [cytotoxic, single point] | inconclusive: 29.6 µM [cytotoxic, single point] |  | inconclusive: 10.5 µM [cytotoxic, single point] |  | inconclusive: 2.35 µM [cytotoxic, full curve, poor fit] | inconclusive: 33.2 µM [cytotoxic, single point] | inconclusive: 11.8 µM [cytotoxic, single point] | inconclusive: 11.8 µM [cytotoxic, partial curve]
